Laboratory results as given in patent publication US20240358831A1, “SELECTION OF IMMUNE CELLS USING PEPTIDE MHC COMPLEXES GENERATED BY CONDITIONAL LIGAND EXCHANGE” (IMMATICS US, INC., priority 2021, published 2024).

Experiment: Detection frequency of HLA presented peptides on normal tissue by LC-MS
Parameters: species or system human
Conditions: for House-keeping peptide: YES/NO, frequently presented in a tissue independent manner; for Normals frequency: percentage of normal tissue samples of the relevant HLA allotype where the peptide was detected

Sequence	House-keeping peptide	Normals frequency [%]
AEIDARNDSF (listed as Homo sapiens) [SPTBN1-001, parental peptide]	YES	90
AESIVVHTY (listed as Homo sapiens) [CSE1-004, parental peptide]	YES	96
ALFLTLTTK (listed as Homo sapiens) [GIBB-001, parental peptide]	YES	93
APRTVALTAL (listed as Homo sapiens) [HLA-DPB1-001, parental peptide]	YES	92
AYVHMVTHF (listed as Homo sapiens) [TEG-001, parental peptide]	YES	96
DAVVKHVL (listed as Homo sapiens) [COPA-007, parental peptide]	YES	95
DLNEKARAL (listed as Homo sapiens) [PDCD10-001, parental peptide]	YES	56
FGLARAFSL (listed as Homo sapiens) [MIR286-001, parental peptide]	YES	70
IIYKGGTSR (listed as Homo sapiens) [GSN-001, parental peptide]	YES	69
ILMEHIHKL (listed as Homo sapiens) [RPL19-001, parental peptide]	YES	75
KYPENFFLL (listed as Homo sapiens) [PPP1CA-001, parental peptide]	YES	100
LLDQGQLNKY (listed as Homo sapiens) [CLTC-001, parental peptide]	YES	96
NENSLFKSL (listed as Homo sapiens) [CLTC-005, parental peptide]	YES	93
NIKKKQEAL (listed as Homo sapiens) [SPTAN-001, parental peptide]	–	2
RLFVGSIPK (listed as Homo sapiens) [HNRNPR-001, parental peptide]	YES	96
SPRPPLISV (listed as Homo sapiens) [MUDENG-001, parental peptide]	YES	72
STDPRPASY (listed as Homo sapiens) [AXIN1-002, parental peptide]	YES	93
STETSTVLY (listed as Homo sapiens) [MUC16-009, parental peptide]	–	0
TPKEKAQAL (listed as Homo sapiens) [MKI-002, parental peptide]	–	0
TVKQKYLSF (listed as Homo sapiens) [LOC646214-002, parental peptide]	YES	30
VTELHVISY (listed as Homo sapiens) [RNF213-009, parental peptide]	YES	95
YLLPAIVHI (listed as Homo sapiens) [DDX5-001, parental peptide]	YES	98
